Laboratory results reported in the supplement of paper PMC10727501.
Some of the results follow. This data set is noisy: repeats of one test often differ as much as different tests do.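 Researchers measured free-swimming zebrafish larvae's O-bend response probability to dark flashes (naive: first five; training: remaining flashes of four 60-flash blocks; test: later 60-flash block) and OMR turning toward alternating leftward/rightward LED motion. Six treated larvae were compared to sixty 0.1% DMSO controls, with |SSMD|≥2 marking a hit.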

Columns and labels:
Settings in all cases: 10 µM; pre-incubation: 30-90 min
[1] = system: Danio rerio larvae (5 dpf, TLF); experiment: OMR-Perf (SSMD vs DMSO vehicle); higher = higher than vehicle (e.g. higher dark-flash O-bend response probability, or better optomotor performance)
[2] = system: Danio rerio larvae (5 dpf, TLF); experiment: Prob-Test (SSMD vs DMSO vehicle); higher = higher than vehicle (e.g. higher dark-flash O-bend response probability, or better optomotor performance)
[3] = system: Danio rerio larvae (5 dpf, TLF); experiment: Prob-Naive (SSMD vs DMSO vehicle); higher = higher than vehicle (e.g. higher dark-flash O-bend response probability, or better optomotor performance)
[4] = system: Danio rerio larvae (5 dpf, TLF); experiment: Prob-Train (SSMD vs DMSO vehicle); higher = higher than vehicle (e.g. higher dark-flash O-bend response probability, or better optomotor performance)

SMILES | OMR-Perf [1] | Prob-Test [2] | Prob-Naive [3] | Prob-Train [4]
Cc1ccc(NC(=O)c2ccc(CN3CCN(C)CC3)cc2)cc1Nc1nc(-c2cccnc2)cs1 [Masitinib (AB1010)] | 0.138 | -0.0499 | 0.147 | 0.14
Cc1nn(-c2ccccc2)c(C)c1/C=N/N1CCN(Cc2ccccc2)CC1 | -0.622 | -1.39 | -0.387 | -1.36
CC(C)[C@H](N)C(=O)OCC(CO)OCN1C=NC2C(=O)NC(N)=NC21.Cl (some centres undefined) [Valganciclovir HCl] | -0.622 | -0.012 | 0.478 | 0.623
Cn1cc(/C=C/C(=O)c2cccc(F)c2)cc1/C=C/C(=O)NO | -0.4 | -0.263 | -0.613 | -0.642
Cc1cc(C#N)cc(C)c1Oc1nc(Nc2ccc(C#N)cc2)nc(N)c1Br [Etravirine (TMC125)] | 0.0656 | 0.0378 | -1.38 | -0.8
Cc1cc2c(F)c(Oc3ncnn4cc(OC[C@@H](C)OC(=O)[C@H](C)N)c(C)c34)ccc2[nH]1 | -0.203 | -1.74 | -0.266 | -1.05
COc1cc2ncc(-c3ccccc3)nc2cc1OC [Tyrphostin AG 1296] | 0.131 | -1.07 | -2.36 | -2.02
Nc1cccc(-c2cc3c(Oc4cccc(O)c4)ncnc3[nH]2)c1 | -0.759 | -0.17 | 0.313 | -0.00494
O=C(O)[C@]1(Cc2cccc(Nc3nccs3)n2)CC[C@@H](Oc2cccc(Cl)c2F)CC1 | -0.248 | -0.463 | -0.137 | 0.278
CCOC(=O)C1=C(N)Oc2ccc(Br)cc2[C@H]1[C@H](C#N)C(=O)OCC | -0.673 | -0.898 | -3.01 | -2.88
CN1C[C@@H]2C[C@H]1CN2c1cc2c(cc1F)c(=O)c(C(=O)O)cn2C1CC1.CS(=O)(=O)O [Danofloxacin Mesylate] | 0.0582 | -0.142 | -0.243 | 0.501
O=C(CCCCCCNC(=O)c1cnc(N(c2ccccc2)c2ccccc2)nc1)NO [Rocilinostat (ACY-1215)] | 0.252 | -0.0767 | -0.0813 | 0.248
NS(=O)(=O)c1cc2c(cc1Cl)NCNS2(=O)=O [Hydrochlorothiazide] | 0.0486 | 0.238 | 0.184 | -0.257
CC(C)c1cc(-c2n[nH]c(=O)n2-c2ccc3c(ccn3C)c2)c(O)cc1O [Ganetespib (STA-9090)] | -0.209 | -0.172 | 0.161 | -0.765
CN(C)CC/C=C1\c2ccccc2Sc2ccc(Cl)cc21 [Chlorprothixene] | -0.666 | -0.645 | 0.252 | -1.04
O=C(O)/C=C\C(=O)O.O=C(c1ccc(OCCCc2c[nH]cn2)cc1)C1CC1 [Ciproxifan] | -0.39 | -0.0521 | -0.11 | 0.0792
COc1ccc2cc([C@H](C)C(=O)[O-])ccc2c1.[Na+] [Naproxen] | -0.285 | -0.493 | -0.862 | -1.35
CC(C)(O)CC[C@@H](O)[C@](C)(O)[C@@H]1CC[C@@]2(O)C3=CC(=O)[C@@H]4C[C@@H](O)[C@@H](O)C[C@]4(C)[C@@H]3CC[C@]12C [20-Hydroxyecdysone] | 0.12 | -0.356 | 0.146 | 0.116
Cl.N=C(N)NC(=N)NCCc1ccccc1 [Phenformin HCl] | 0.254 | -0.532 | -0.06 | -0.273
O=C(Nc1ccccc1)c1cc([N+](=O)[O-])ccc1Cl | -0.664 | -0.0745 | -0.554 | 0.104
Cc1cccc(C)c1OCC(=O)N[C@@H](Cc1ccccc1)[C@@H](O)C[C@H](Cc1ccccc1)NC(=O)[C@H](C(C)C)N1CCCNC1=O [Lopinavir] | 0.0868 | 0.147 | 0.449 | -0.613

Retrieved by structure from the list above:
SMILES | OMR-Perf [1] | Prob-Test [2] | Prob-Naive [3] | Prob-Train [4]
O=C(O)[C@]1(Cc2cccc(Nc3nccs3)n2)CC[C@@H](Oc2cccc(Cl)c2F)CC1 | -0.248 | -0.463 | -0.137 | 0.278
Cc1ccc(NC(=O)c2ccc(CN3CCN(C)CC3)cc2)cc1Nc1nc(-c2cccnc2)cs1 [Masitinib (AB1010)] | 0.138 | -0.0499 | 0.147 | 0.14
